# In patent publication US12612394B2, “Herbicidal malonamides” (BASF SE, priority 2020, dated 2026):
# Some entries share one result that the patent states for a list of compounds. Some ranges recur; such a range may be that of the whole group of compounds.
# What was measured:
# ALOMY [1] = experiment: greenhouse experiment, pre-emergence treatment; format: in vivo, Alopercurus myosuroides; conditions: pre-emergence method
# Excerpt: (§1) The culture containers used were plastic flowerpots containing loamy sand with approximately 3.0% of humus as the substrate. The seeds of the test plants were sown separately for each species.
# (§2) For the pre-emergence treatment, the active ingredients, which had been suspended or emulsified in water, were applied directly after sowing by means of finely distributing nozzles. The containers were irrigated gently to promote germination and growth and subsequently covered with transparent plastic hoods until the test plants had rooted. This cover caused uniform germination of the test plants, unless this had been impaired by the active ingredients. For the post-emergence treatment, the test plants were first grown to a height of 3 to 15 cm, depending on the plant habit, and only then treated with the active ingredients which had been suspended or emulsified in water. For this purpose, the test plants were either sown directly and grown in the same containers, or they were first grown separately as seedlings and transplanted into the test containers a few days prior to treatment.
# (§3) Depending on the species, the test plants were kept at 10-25° C. or 20-35° C., respectively. The test period extended over 2 to 4 weeks. During this time, the test plants were tended, and their response to the individual treatments was evaluated.
# (§4) Evaluation was carried out using a scale from 0 to 100. 100 means no emergence of the test plants, or complete destruction of at least the aerial moieties, and 0 means no damage, or normal course of growth. A good herbicidal activity is given at values of 70 to 90 and a very good herbicidal activity is given at values of 90 to 100.
# (§5) The test plants used in the greenhouse experiments were of the following species: […]
# ECHCG [2] = experiment: greenhouse experiment, pre-emergence treatment; format: in vivo, Echinocloa crus-galli; conditions: pre-emergence method
# ALOMY [3] = experiment: greenhouse experiment, post-emergence treatment; format: in vivo, Alopercurus myosuroides; conditions: post-emergence method
# AMARE [4] = experiment: greenhouse experiment, pre-emergence treatment; format: in vivo, Amaranthus retroflexus; conditions: pre-emergence method
# APESV = experiment: greenhouse experiment, pre-emergence treatment; format: in vivo, Apera spica-venti; conditions: application rate 0.250 kg/ha, pre-emergence method
# ABUTH [5] = experiment: greenhouse experiment, post-emergence treatment; format: in vivo, Abutilon theophrasti; conditions: application rate 0.250 kg/ha, post-emergence method
# AMARE [6] = experiment: greenhouse experiment, post-emergence treatment; format: in vivo, Amaranthus retroflexus; conditions: post-emergence method
# ECHCG [7] = experiment: greenhouse experiment, post-emergence treatment; format: in vivo, Echinocloa crus-galli; conditions: application rate 0.250 kg/ha, post-emergence method
# ABUTH [8] = experiment: greenhouse experiment, pre-emergence treatment; format: in vivo, Abutilon theophrasti; conditions: application rate 0.250 kg/ha, pre-emergence method
# Excerpt: as §1, §2, §3, §4, §5
# SETFA = experiment: greenhouse experiment, pre-emergence treatment; format: in vivo, Setaria faberi; conditions: application rate 0.250 kg/ha, pre-emergence method
# Excerpt: as §1, §2, §3, §4, §5
# AVEFA = experiment: greenhouse experiment, post-emergence treatment; format: in vivo, Avena fatua; conditions: application rate 0.250 kg/ha, post-emergence method
Compound,herbicidal activity against AMARE (AMARE [4]; application rate 0.250 kg/ha),herbicidal activity against ECHCG (ECHCG [2]; application rate 0.250 kg/ha),herbicidal activity against ABUTH (ABUTH [5]),herbicidal activity against AMARE (AMARE [6]; application rate 0.250 kg/ha),herbicidal activity against ABUTH (ABUTH [8]),herbicidal activity against ALOMY (ALOMY [1]; application rate 0.250 kg/ha),herbicidal activity against ALOMY (ALOMY [3]; application rate 0.250 kg/ha),other results
COC(=O)[C@@H]1CC[C@H](NC(=O)C(OC)C(=O)Nc2cc(Cl)cc(Cl)c2)C1 (relative stereo) [I.36],–,–,–,–,–,–,–,herbicidal activity against ALOMY (ALOMY [1]; application rate 0.500 kg/ha): very good (a very good herbicidal activity is given at values of 90 to 100); herbicidal activity against ECHCG (ECHCG [2]; application rate 0.500 kg/ha): very good (a very good herbicidal activity is given at values of 90 to 100); herbicidal activity against ALOMY (ALOMY [3]; application rate 0.500 kg/ha): very good (a very good herbicidal activity is given at values of 90 to 100)
COC(C(=O)Nc1cc(Cl)cc(C#N)c1)C(=O)N[C@H]1C=C[C@@H](C(=O)OC(C)C)C1 (relative stereo) [I.167],very good (a very good herbicidal activity is given at values of 90 to 100),very good (a very good herbicidal activity is given at values of 90 to 100),very good (a very good herbicidal activity is given at values of 90 to 100),good (A good herbicidal activity is given at values of 70 to 90),–,–,–,herbicidal activity against APESV (APESV): very good (a very good herbicidal activity is given at values of 90 to 100); herbicidal activity against ECHCG (ECHCG [7]): very good (a very good herbicidal activity is given at values of 90 to 100)
C=CCOC(=O)[C@@H]1C=C[C@H](NC(=O)C(OC)C(=O)Nc2cc(Cl)cc(Cl)c2)C1 (relative stereo) [I.174],very good (a very good herbicidal activity is given at values of 90 to 100),–,very good (a very good herbicidal activity is given at values of 90 to 100),very good (a very good herbicidal activity is given at values of 90 to 100),good (A good herbicidal activity is given at values of 70 to 90),very good (a very good herbicidal activity is given at values of 90 to 100),very good (a very good herbicidal activity is given at values of 90 to 100),–
COC(C(=O)Nc1cc(Cl)cc(Cl)c1)C(=O)N[C@H]1C=C[C@@H](C(=O)OCc2ccco2)C1 (relative stereo) [I.179],very good (a very good herbicidal activity is given at values of 90 to 100),–,good (A good herbicidal activity is given at values of 70 to 90),very good (a very good herbicidal activity is given at values of 90 to 100),good (A good herbicidal activity is given at values of 70 to 90),–,–,herbicidal activity against ECHCG (ECHCG [7]): very good (a very good herbicidal activity is given at values of 90 to 100)
COC(=O)C(C)OC(=O)[C@@H]1C=C[C@H](NC(=O)C(OC)C(=O)Nc2cc(Cl)cc(Cl)c2)C1 (relative stereo) [I.181],very good (a very good herbicidal activity is given at values of 90 to 100),very good (a very good herbicidal activity is given at values of 90 to 100),very good (a very good herbicidal activity is given at values of 90 to 100),very good (a very good herbicidal activity is given at values of 90 to 100),good (A good herbicidal activity is given at values of 70 to 90),–,very good (a very good herbicidal activity is given at values of 90 to 100),–
COC(=O)CC(C)NC(=O)C(OC)C(=O)Nc1cc(F)cc(F)c1 (stereo not drawn) [I.13],–,–,–,–,–,–,–,herbicidal activity against ALOMY (ALOMY [1]; application rate 0.500 kg/ha): very good (a very good herbicidal activity is given at values of 90 to 100); herbicidal activity against AMARE (AMARE [4]; application rate 0.500 kg/ha): very good (a very good herbicidal activity is given at values of 90 to 100); herbicidal activity against ALOMY (ALOMY [3]; application rate 0.500 kg/ha): very good (a very good herbicidal activity is given at values of 90 to 100); herbicidal activity against AMARE (AMARE [6]; application rate 0.500 kg/ha): very good (a very good herbicidal activity is given at values of 90 to 100)
COC(C(=O)Nc1cccc(Cl)c1)C(=O)NC1C=CC(C(=O)OC(C)C)C1 (stereo not drawn) [I.163],very good (a very good herbicidal activity is given at values of 90 to 100),–,very good (a very good herbicidal activity is given at values of 90 to 100),very good (a very good herbicidal activity is given at values of 90 to 100),very good (a very good herbicidal activity is given at values of 90 to 100),–,–,herbicidal activity against SETFA (SETFA): very good (a very good herbicidal activity is given at values of 90 to 100); herbicidal activity against AVEFA (AVEFA): very good (a very good herbicidal activity is given at values of 90 to 100)
COC(C(=O)Nc1cc(Cl)cc(Cl)c1)C(=O)N[C@H]1C=C[C@@H](C(=O)OC2CCCCC2)C1 (stereo partly drawn) [I.177],–,very good (a very good herbicidal activity is given at values of 90 to 100),very good (a very good herbicidal activity is given at values of 90 to 100),good (A good herbicidal activity is given at values of 70 to 90),–,very good (a very good herbicidal activity is given at values of 90 to 100),very good (a very good herbicidal activity is given at values of 90 to 100),herbicidal activity against SETFA (SETFA): very good (a very good herbicidal activity is given at values of 90 to 100)
COC(=O)[C@@H]1C=C[C@H](NC(=O)C(OC(F)(F)F)C(=O)Nc2cc(Cl)cc(Cl)c2)C1 (stereo partly drawn) [I.178],–,–,–,good (A good herbicidal activity is given at values of 70 to 90),–,very good (a very good herbicidal activity is given at values of 90 to 100),–,herbicidal activity against AVEFA (AVEFA): very good (a very good herbicidal activity is given at values of 90 to 100)
CCc1cccc(NC(=O)C(OC)C(=O)NC2C=CC(C(=O)OC)C2)c1 (stereo not drawn) [I.188],good (A good herbicidal activity is given at values of 70 to 90),very good (a very good herbicidal activity is given at values of 90 to 100),good (A good herbicidal activity is given at values of 70 to 90),good (A good herbicidal activity is given at values of 70 to 90),–,very good (a very good herbicidal activity is given at values of 90 to 100),very good (a very good herbicidal activity is given at values of 90 to 100),–
COC(=O)[C@@H]1C=C[C@H](NC(=O)C(OC)C(=O)Nc2cccc(I)c2)C1 (stereo partly drawn) [I.189],very good (a very good herbicidal activity is given at values of 90 to 100),very good (a very good herbicidal activity is given at values of 90 to 100),very good (a very good herbicidal activity is given at values of 90 to 100),very good (a very good herbicidal activity is given at values of 90 to 100),–,very good (a very good herbicidal activity is given at values of 90 to 100),very good (a very good herbicidal activity is given at values of 90 to 100),–
